Data from publication PMC11992337.
The exact form of at least one protein or probe is not confirmed.

Tested on: Wo (Woolly), HD-ZIP IV
Assay: EMSA
Details: cold probe competes with increasing amount; Beyotime EMSA/Gel-Shift kit; protein with cold probe 10 min, then labeled probe 20 min, room temperature; polyacrylamide gel; salt and pH not stated; recombinant protein; protein details: MBP (pET-15d, purified with His-tag kit); label: 5' FAM

**Q.** Does “CATAAAAGGTATGGTAAATGCTATCAGTATATAT (double strand) [SlTCP25-L1-probe]” bind?
**A.** Result: binds
